Reference: patent US20020192214A1
These are yes or no findings as the source states them, for the method shown. Some binding calls cover weakened binding; strength is not graded here.

Chains of the proteins cited; added tags and fusions are not shown. Lines headed by an entry give the natural chain unless they say otherwise; changes in a name come on top. Residues count along the entry.
UniProt P51677: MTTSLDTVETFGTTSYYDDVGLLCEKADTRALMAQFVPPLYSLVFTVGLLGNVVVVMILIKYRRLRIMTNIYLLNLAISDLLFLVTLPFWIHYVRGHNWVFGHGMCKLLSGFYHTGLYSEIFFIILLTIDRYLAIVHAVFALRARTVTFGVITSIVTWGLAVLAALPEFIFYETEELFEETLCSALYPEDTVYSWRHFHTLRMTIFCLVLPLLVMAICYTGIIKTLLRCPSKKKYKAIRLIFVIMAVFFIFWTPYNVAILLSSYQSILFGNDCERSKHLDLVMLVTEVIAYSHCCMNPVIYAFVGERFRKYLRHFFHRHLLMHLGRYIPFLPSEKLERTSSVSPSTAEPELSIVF
UniProt P80098, residues 24-99: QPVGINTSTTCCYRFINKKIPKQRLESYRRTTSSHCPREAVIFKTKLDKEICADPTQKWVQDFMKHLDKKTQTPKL
UniProt P13501, residues 24-91: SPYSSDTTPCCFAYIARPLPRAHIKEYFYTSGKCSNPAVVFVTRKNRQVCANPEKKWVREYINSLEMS

Experiments:
[1] = target: endogenous eosinophil eotaxin receptor (CC CKR3) on primary human eosinophils (human) (UniProt P51677); assay: competition against 125I-eotaxin, primary eosinophils
[2] = target: human eosinophil eotaxin receptor CC CKR3, stably expressed in AML14.3D10 cells (human) (UniProt P51677); assay: competition against 125I-human eotaxin, AML14.3D10 cells expressing CC CKR3
[3] = target: human eosinophil eotaxin receptor CC CKR3, stably expressed in AML14.3D10 cells (human) (UniProt P51677); assay: competition against 125I-MCP-3, AML14.3D10 cells expressing CC CKR3
[4] = target: human eosinophil eotaxin receptor CC CKR3, stably expressed in AML14.3D10 cells (human) (UniProt P51677); assay: competition binding, AML14.3D10 cells expressing CC CKR3

Measured: binding

MCP-3 (from UniProt P80098 24-99) (ligand)
binds: all assays above

RANTES (from UniProt P13501 24-91) (ligand)
binds: all assays above
